Results are given in words; binding and its absence hold for the method and conditions named. Binding seen in cells or lysates may run through a third protein. Some entries that bind do so weakly or less than the wild type.

The chains behind the UniProt entries cited, without tags or fusion partners. Residues count along the entry.
UniProt P06276, residues 29-602: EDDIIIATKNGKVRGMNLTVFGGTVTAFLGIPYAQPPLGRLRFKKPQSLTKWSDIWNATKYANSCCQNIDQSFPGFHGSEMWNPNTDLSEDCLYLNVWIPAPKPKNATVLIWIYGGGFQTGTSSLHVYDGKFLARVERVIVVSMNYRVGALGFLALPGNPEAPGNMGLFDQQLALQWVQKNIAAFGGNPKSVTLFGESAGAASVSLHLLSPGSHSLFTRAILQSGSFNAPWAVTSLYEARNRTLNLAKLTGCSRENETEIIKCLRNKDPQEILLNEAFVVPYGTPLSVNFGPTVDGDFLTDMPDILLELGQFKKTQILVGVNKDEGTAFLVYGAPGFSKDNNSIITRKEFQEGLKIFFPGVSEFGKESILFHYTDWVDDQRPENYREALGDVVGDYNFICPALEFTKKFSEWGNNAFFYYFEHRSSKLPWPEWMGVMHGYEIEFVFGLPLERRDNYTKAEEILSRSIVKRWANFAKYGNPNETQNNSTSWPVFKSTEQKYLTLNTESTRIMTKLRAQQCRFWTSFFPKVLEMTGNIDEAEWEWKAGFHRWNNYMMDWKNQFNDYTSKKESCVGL
UniProt P02768, residues 25-609: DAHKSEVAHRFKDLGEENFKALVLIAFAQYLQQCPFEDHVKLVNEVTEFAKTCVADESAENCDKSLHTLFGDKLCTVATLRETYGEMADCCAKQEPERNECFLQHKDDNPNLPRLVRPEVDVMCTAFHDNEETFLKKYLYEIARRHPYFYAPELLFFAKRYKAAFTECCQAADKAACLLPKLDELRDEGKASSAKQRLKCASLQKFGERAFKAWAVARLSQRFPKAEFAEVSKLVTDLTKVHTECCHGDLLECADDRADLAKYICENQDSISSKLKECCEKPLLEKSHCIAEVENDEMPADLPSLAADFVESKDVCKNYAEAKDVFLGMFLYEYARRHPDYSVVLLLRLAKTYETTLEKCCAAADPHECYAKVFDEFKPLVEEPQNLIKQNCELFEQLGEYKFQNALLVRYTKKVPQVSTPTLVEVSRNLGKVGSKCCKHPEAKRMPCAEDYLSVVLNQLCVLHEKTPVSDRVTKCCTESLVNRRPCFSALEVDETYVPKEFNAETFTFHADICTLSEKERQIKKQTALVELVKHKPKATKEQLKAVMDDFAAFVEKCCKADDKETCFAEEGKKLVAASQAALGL

The target of this experiment is butyrylcholinesterase (human (endogenous in serum)) (UniProt P06276). Briefly: co-IP; fraction 12 of the iodixanol density gradient of human serum; 10 µg mouse anti-BChE monoclonal antibody 3E8 immobilised on AminoLink Plus Coupling Resin (Pierce Co-IP Kit); overnight at 4 °C; washed two times with 200 µL IP Lysis/Wash Buffer; eluate identified by mass spectrometry; quenched resin without antibody as control.

As for “serum albumin (from UniProt P02768 25-609)”, the binding result was “binds”.

For the origin of these results see paper PMC8508650.
